# Experimental data published in US20130059929A1, “MICROBIOLOGICALLY STABLE, EASILY APPLICABLE PREPARATIONS” (Beiersdorf AG, priority 2010, published 2013).
# System: Staphylococcus epidermidis
# Assay: biofilm assay (biofilm inhibition and biofilm dissolution, color reaction on microtiter plate scale, FIG. 1)
# Type: cell-based
# Conditions: timepoint 0 h, based on the positive control (PC1)
# Description: In the course of the biofilm assay, the biofilm inhibition at timepoint 0 h and also the biofilm-dissolving effect at timepoint 24 h is investigated using a color reaction on a microtiter plate scale.
# The test shown in FIG. 1 was carried out with Staphylococcus epidermidis, a germ which causes little harm for people with a normal immunological defense. Staphylococcus epidermidis (syn. Staphylococcus albus, Micrococcus epidermidis, Staphylococcus saprophyticus) is a Gram-positive, plasmacoagulase-negative, saprophagic bacterium which colonizes the human skin and mucosa. Furthermore, it can be found on foods and also colonizes on polymeric surfaces (e.g. packagings). However, in a hospital, in the case of immunocompromised people, it can, in cases of lack of cleanliness, be a cause of serious diseases.
smiles,measurement,value
"CC(C)(C)CC(C)(C)c1ccc(OCCOCC[N+](C)(C)Cc2ccccc2)cc1 [benzethonium chloride, benzyldimethyl (4-{2-[4-(1,1,3,3-tetramethylbutyl)phenoxy]ethoxy}ethyl)ammonium chloride]",biofilm inhibition (biofilm-inhibiting effectiveness),very good biofilm-inhibiting effectiveness
